Some entries share one result that the patent states for a list of compounds.
Test system: MRC-5 cells

Structure (SMILES) | selectivity indices
CONC(=O)[C@@H]1[C@H](O)[C@]2(O)c3c(OC)cc(OC)cc3O[C@]2(c2ccc(OC)cc2)[C@H]1c1ccccc1 [CR-31-B (+)] | > 1000
CONC(=O)[C@H]1[C@@H](O)[C@@]2(O)c3c(OC)cc(OC)cc3O[C@@]2(c2ccc(OC)cc2)[C@@H]1c1ccccc1 [CR-31-B (−)] | > 1000

Source: US20250345307A1, “SYNTHETIC […] BROAD-SPECTRUM ANTIVIRAL ACTIVITIES AND USES THEREOF” (priority 2020, published 2025)
